These results are taken from patent publication US20040236075A1.

Results are given in words; binding and its absence hold for the method and conditions named. Some entries that bind do so weakly or less than the wild type.

This assay deals with T1, recombinant human IL-22 (human) (UniProt Q9GZX6).
T1 sequence (looked up): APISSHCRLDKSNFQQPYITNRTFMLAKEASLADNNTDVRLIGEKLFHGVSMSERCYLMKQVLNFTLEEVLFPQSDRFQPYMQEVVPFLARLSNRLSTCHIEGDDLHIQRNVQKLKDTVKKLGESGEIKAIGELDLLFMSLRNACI
The experiment in a line: ELISA: plates coated with recombinant human IL-22, IL-22BP-Ig (10% supernatant) detected with anti-mouse IgG3 peroxidase. For orientation: In an ELISA, binding on a coated surface is turned into a signal by an enzyme label.

B1: IL-22BP-Ig (Fc fusion, UniProt Q969J5-2 22-231, looked up, not shown: a dimerising Fc or GST)
chain: TQSTHESLKPQRVQFQSRNFHNILQWQPGRALTGNSSVYFVQYKIYGQRQWKNKEDCWGTQELSCDLTSETSDIQEPYYGRVRAASAGSYSEWSMTPRFTPWWETKIDPPVMNITQVNGSLLVILHAPNLPYRYQKEKNVSIEDYYELLYRVFIINNSLEKEQKVYEGAHRAVEIEALTPHSSYCVVAEIYQPMLDRRSQRSEERCVEIP
For B1, the binding result is “binds”.
